In paper PMC10288505 (Journal of the American Chemical Society, 2023):

Experiment: general procedure: Fmoc solid-phase peptide synthesis; Rink Amide resin (loading 0.45 mmol/g); N-HBTU/DIEA; HATU/DIEA for TAMRA
Conditions: whole synthesis, overall

Substance	isolated yield
PEPTIDE1{R.R.R.R.R.R.R.R.[am]}$$$$V2.0	37%
PEPTIDE1{R.R.R.R.R.R.[am]}$$$$V2.0	55%

Some peptides are written in HELM: one residue between dots, names in brackets for other building blocks, links after the first $.
